The list does not hold the whole screen: it is rich in T/C values a quarter to a half above the control, in often repeated tests (any T/C) and in doses without a T/C. Further doses and runs are listed elsewhere. T/C: endpoint of the treated group in % of that of the vehicle group. Some entries give survivors of the animals treated and no T/C: the source files T/C as zero there, which appears to mark a toxic dose or a test without result, not a measured value. Some survivor counts are full or nearly so, which does not show that the dose was tolerated: survival well below the control is almost never listed, so the zero probably covers shortened survival too. Survivors were counted at the toxicity check, usually on the fifth day, unless a day is given; later deaths do not show. Schedule codes are those of the source, taken here to give the interval after Q, in days (D) or hours (H), and the number of doses after X. Where survival is the endpoint, the PubChem record calls one and a half times the control and up active, and a quarter to a half above the control has no call in these data; cut-offs in other NCI protocols can differ. Some doses were run more than once; the values are given in rising order.
Test system: AKR/Lw mice, AKR lymphoma ip, median survival T/C
Test: NCI In Vivo Anticancer Drug Screen. Data for tumor model Lymphoma AKR (Transplanted) (intraperitoneal) in AKR/Lw mice
Conditions: T/C endpoint: median survival time, higher T/C = longer survival
Experimental: The antitumor activity of compounds was measured in mice bearing transplantable tumors. Survival or tumor size were measured and the results are expressed as the measurement made in the treated group (T) divided by the measurement made in the vehicle treated control group (C). The tumor model used in this assay is Lymphoma AKR (Transplanted) (intraperitoneal) in AKR/Lw mice

[1] = dose: 400.0 mg/kg/injection, schedule: Q01DX001 (ip), vehicle: Klucel (hydroxypropylcellulose) (HPC)
[2] = dose: 1.5 mg/kg/injection, schedule: Q04DX008 (ip), vehicle: Klucel (hydroxypropylcellulose) (HPC)
[3] = dose: 100.0 mg/kg/injection, schedule: Q01DX001 (ip), vehicle: saline
[4] = dose: 100.0 mg/kg/injection, schedule: Q01DX001 (ip), vehicle: Klucel (hydroxypropylcellulose) (HPC)
[5] = dose: 200.0 mg/kg/injection, schedule: Q01DX001 (ip), vehicle: saline
[6] = dose: 400.0 mg/kg/injection, schedule: Q01DX001 (ip), vehicle: saline

## O=C1N[C@@H]([C@H]2CC[C@H](Cl)CN2)C(=O)N[C@H]1[C@H]1CC[C@H](Cl)CN1
dose: 4.0 mg/kg/injection, schedule: Q01DX001 (ip), vehicle: saline
  T/C: 133 % of control
dose: 4.0 mg/kg/injection, schedule: Q01DX001 (ip), vehicle: water
  T/C: 146 % of control
dose: 4.0 mg/kg/injection, schedule: Q01DX009 (ip), vehicle: water
  survivor count: 10 of 10
dose: 8.0 mg/kg/injection, schedule: Q01DX001 (ip), vehicle: saline
  survivor count: 10 of 10
dose: 8.0 mg/kg/injection, schedule: Q01DX009 (ip), vehicle: water
  survivor count: 9 of 10
dose: 16.0 mg/kg/injection, schedule: Q01DX001 (ip), vehicle: saline
  survivor count: 7 of 10
dose: 16.0 mg/kg/injection, schedule: Q01DX001 (ip), vehicle: water
  survivor count: 10 of 10
dose: 16.0 mg/kg/injection, schedule: Q01DX009 (ip), vehicle: water
  survivor count: 10 of 10
dose: 32.0 mg/kg/injection, schedule: Q01DX001 (ip), vehicle: water
  survivor count: 10 of 10
dose: 32.0 mg/kg/injection, schedule: Q01DX009 (ip), vehicle: water
  survivor count: 10 of 10

## COc1cc2ccc(CC(=O)NCc3ccccc3)cc2cc1OC
dose: 100.0 mg/kg/injection, schedule: Q04DX003 (ip), vehicle: other
  survivor count: 10 of 10
dose: 400.0 mg/kg/injection, schedule: Q04DX003 (ip), vehicle: other
  survivor count: 10 of 10

## CCOC(=O)/C(C(C)=O)=C(/O)c1ccc(OC(F)(F)C(F)Cl)cc1OC(F)(F)C(F)Cl.CCOC(=O)/C(C(C)=O)=C(/O)c1ccc(OC(F)(F)C(F)Cl)cc1OC(F)(F)C(F)Cl.[Cu] (stereo not given)
[1]
  survivor count: 9 of 10

## N[C@@H](Cc1ccc(N(CCCl)CCCl)cc1)C(=O)O
[2]
  T/C: 134 % of control
  survivor count: 10 of 10
dose: 2.5 mg/kg/injection, schedule: Q01DX001 (ip), vehicle: Klucel (hydroxypropylcellulose) (HPC)
  T/C: 130 % of control
dose: 2.5 mg/kg/injection, schedule: Q04DX008 (ip), vehicle: Klucel (hydroxypropylcellulose) (HPC)
  survivor count: 9 of 10
dose: 3.9 mg/kg/injection, schedule: Q04DX008 (ip), vehicle: Klucel (hydroxypropylcellulose) (HPC)
  survivor count: 10 of 10
dose: 4.0 mg/kg/injection, schedule: Q01DX001 (ip), vehicle: Klucel (hydroxypropylcellulose) (HPC)
  T/C: 127 and 141 % of control
dose: 6.0 mg/kg/injection, schedule: Q04DX008 (ip), vehicle: Klucel (hydroxypropylcellulose) (HPC)
  survivor count: 10 of 10
dose: 7.7 mg/kg/injection, schedule: Q04DX004 (ip), vehicle: Klucel (hydroxypropylcellulose) (HPC)
  survivor count: 10 of 10
dose: 7.7 mg/kg/injection, schedule: Q04DX004 (ip), vehicle: saline
  survivor count: 10 of 10
dose: 9.0 mg/kg/injection, schedule: Q01DX001 (ip), vehicle: Klucel (hydroxypropylcellulose) (HPC)
  T/C: 125 % of control
dose: 10.0 mg/kg/injection, schedule: Q04DX008 (ip), vehicle: Klucel (hydroxypropylcellulose) (HPC)
  survivor count: 10 of 10
dose: 12.0 mg/kg/injection, schedule: Q01DX001 (ip), vehicle: Klucel (hydroxypropylcellulose) (HPC)
  survivor count: 7 of 10
dose: 20.0 mg/kg/injection, schedule: Q04DX008 (ip), vehicle: Klucel (hydroxypropylcellulose) (HPC)
  survivor count: 8 of 10

## CC(C)OC(=O)Oc1cccc2c1C(=O)c1ccccc1C2=O
[1]
  T/C: 128 % of control

## CCOC(=O)CCCSCCCC(=O)OCC
[3]
  survivor count: 10 of 10

## C/C=C(/Cl)c1c(C)cc(C)c(CC(=O)O)c1C
[4]
  survivor count: 8 of 10

## COC(=O)c1ccc(NCC(C)(C)N)cc1
[3]
  survivor count: 0 of 10
[5]
  survivor count: 0 of 10
[6]
  survivor count: 0 of 10

## O=C(NC(CSSCC(NC(=O)OCc1ccccc1)C(=O)O)C(=O)O)OCc1ccccc1 (stereo not given)
dose: 200.0 mg/kg/injection, schedule: Q04DX003 (ip), vehicle: saline
  survivor count: 10 of 10

## CC1(C)N=C(N)N=C(N)N1c1cc(Cl)c(Cl)cc1Cl
dose: 75.0 mg/kg/injection, schedule: Q01DX001 (ip), vehicle: Klucel (hydroxypropylcellulose) (HPC)
  survivor count: 4 of 10
[4]
  survivor count: 0 of 10
dose: 200.0 mg/kg/injection, schedule: Q01DX001 (ip), vehicle: Klucel (hydroxypropylcellulose) (HPC)
  survivor count: 0 of 10
[1]
  survivor count: 0 of 10

## COc1cc2ccc(CCNCc3ccccc3)cc2cc1OC
[5]
  survivor count: 2 of 10
[6]
  survivor count: 0 of 10

## CC(=O)N1C(=O)C2(c3ccccc31)c1cccc3c1C(=C1C(=O)OC(=O)C12)C(=O)N3C(C)=O (stereo not given)
[3]
  survivor count: 10 of 10

Reference: PubChem BioAssay AID190 (DTP/NCI, 2004)
